Measurements: EPA's CvTdb concentration-time database
The source gives many values for each of these; only a part stands here.

Key:
Test in all cases: concentration in plasma after dosing
Mouse [1] = details: 0.5 h; dosed: 2-Hydroxy-4-methoxybenzophenone; 50 mg/kg; iv; Male; B6C3F1
Rat [2] = details: dosed: 2-Hydroxy-4-methoxybenzophenone, 250 mg/kg, oral, Male, F344
Rat [3] = details: dosed: 2-Hydroxy-4-methoxybenzophenone, 100 mg/kg, oral, Female, F344
Mouse [4] = details: 5 min; dosed: 2-Hydroxy-4-methoxybenzophenone; 500 mg/kg; oral; Male; B6C3F1
Mouse [5] = details: 8 h; dosed: 2-Hydroxy-4-methoxybenzophenone; 50 mg/kg; iv; Female; B6C3F1
Rat [6] = details: dosed: 2-Hydroxy-4-methoxybenzophenone, 250 mg/kg, oral, Female, F344
Mouse [7] = details: 16 h; dosed: 2-Hydroxy-4-methoxybenzophenone; 50 mg/kg; iv; Male; B6C3F1
Mouse [8] = details: 1.5 h; dosed: 2-Hydroxy-4-methoxybenzophenone; 250 mg/kg; oral; Female; B6C3F1
Mouse [9] = details: 0.5 h; dosed: 2-Hydroxy-4-methoxybenzophenone; 250 mg/kg; oral; Female; B6C3F1
Rat [10] = details: dosed: 2-Hydroxy-4-methoxybenzophenone, 250 mg/kg, oral, Male, F344; remark: listed apart in the source
Mouse [11] = details: 7 h; dosed: 2-Hydroxy-4-methoxybenzophenone; 250 mg/kg; oral; Male; B6C3F1
Rat [12] = details: 16 h; dosed: 2-Hydroxy-4-methoxybenzophenone; 500 mg/kg; oral; Female; F344
Rat [13] = details: dosed: 2-Hydroxy-4-methoxybenzophenone, 250 mg/kg, oral, Female, F344; remark: listed apart in the source
Mouse [14] = details: 0.5 h; dosed: 2-Hydroxy-4-methoxybenzophenone; 250 mg/kg; oral; Female; B6C3F1; remark: listed apart in the source
Rat [15] = details: dosed: 2-Hydroxy-4-methoxybenzophenone, 250 mg/kg, oral, Male, F344; remark: listed apart in the source
Rat [16] = details: dosed: 2-Hydroxy-4-methoxybenzophenone, 500 mg/kg, oral, Female, F344
Rat [17] = details: dosed: Perfluorohexanoic Acid, 40 mg/kg, oral, Male, Harlan Sprague Dawley
Rat [18] = details: dosed: Perfluorohexanoic Acid, 160 mg/kg, oral, Male, Harlan Sprague Dawley
Rat [19] = details: dosed: Perfluorohexanoic Acid, 40 mg/kg, Male, F344
Rat [20] = details: dosed: Perfluorohexanoic Acid, 160 mg/kg, oral, Male, Harlan Sprague Dawley; remark: listed apart in the source
Mouse [21] = details: 10 h; dosed: 2-Hydroxy-4-methoxybenzophenone; 500 mg/kg; oral; Male; B6C3F1
Mouse [22] = details: 16 h; dosed: 2-Hydroxy-4-methoxybenzophenone; 500 mg/kg; oral; Male; B6C3F1
Rat [23] = details: dosed: 2-Hydroxy-4-methoxybenzophenone, 500 mg/kg, oral, Male, F344
Mouse [24] = details: 5 min; dosed: 2-Hydroxy-4-methoxybenzophenone; 500 mg/kg; oral; Male; B6C3F1; remark: listed apart in the source
Rat [25] = details: 6 h; dosed: 2-Hydroxy-4-methoxybenzophenone; 500 mg/kg; oral; Female; F344
Rat [26] = details: dosed: 2-Hydroxy-4-methoxybenzophenone, 100 mg/kg, oral, Female, F344; remark: listed apart in the source
Mouse [27] = details: 1 h; dosed: 2-Hydroxy-4-methoxybenzophenone; 500 mg/kg; oral; Female; B6C3F1
Rat [28] = details: 5 min; dosed: 2-Hydroxy-4-methoxybenzophenone; 8 mg/kg; iv; Female; F344
Mouse [29] = details: 5 min; dosed: 2-Hydroxy-4-methoxybenzophenone; 250 mg/kg; oral; Male; B6C3F1
Mouse [30] = details: 1.5 h; dosed: 2-Hydroxy-4-methoxybenzophenone; 250 mg/kg; oral; Male; B6C3F1
Mouse [31] = details: dosed: 2-Hydroxy-4-methoxybenzophenone, 100 mg/kg, oral, Male, B6C3F1
Mouse [32] = details: 1 h; dosed: 2-Hydroxy-4-methoxybenzophenone; 50 mg/kg; iv; Female; B6C3F1
Mouse [33] = details: 8 h; dosed: 2-Hydroxy-4-methoxybenzophenone; 50 mg/kg; iv; Female; B6C3F1; remark: listed apart in the source
Rat [34] = details: 16 h; dosed: 2-Hydroxy-4-methoxybenzophenone; 500 mg/kg; oral; Female; F344; remark: listed apart in the source
Mouse [35] = details: 0.5 h; dosed: 2-Hydroxy-4-methoxybenzophenone; 250 mg/kg; oral; Female; B6C3F1; remark: listed apart in the source
Mouse [36] = details: 6 h; dosed: 2-Hydroxy-4-methoxybenzophenone; 500 mg/kg; oral; Female; B6C3F1

COc1ccc(C(=O)c2ccccc2)c(O)c1 [2-Hydroxy-4-methoxybenzophenone]
Details	concentration in plasma [ng/mL]
Mouse [1]	2840
Mouse [4]	69.5
Mouse [5]	27.6
Mouse [7]	15.9
Mouse [8]	69.5
Mouse [9]	252
Mouse [11]	15.3
Mouse [14]	9.73
Rat [12]	19.6

Details	concentration in plasma [ng/mL]
Rat [2], 0.5 h	216
Rat [2], 10 h	12.7
Rat [3], 1 h	512
Rat [3], 6 h	9.43
Rat [6], 1 h	170
Rat [6], 6 h	16.3
Rat [10], 1 h	308
Rat [10], 6 h	37.2
Rat [13], 0.5 h	165
Rat [13], 10 h	19.4
Rat [15], 2 h	103
Rat [15], 5 min	59.2
Rat [16], 0.5 h	413
Rat [16], 12 h	22.4

O=C(O)C(F)(F)C(F)(F)C(F)(F)C(F)(F)C(F)(F)F [Perfluorohexanoic Acid]
Details	concentration in plasma [ng/mL]
Rat [17], 3 h	15300
Rat [17], 5 min	22100
Rat [18], 3 h	182000
Rat [18], 5 min	92900
Rat [19], 0.25 h	162000
Rat [19], 6 h	131
Rat [20], 0.5 h	247000
Rat [20], 9 h	8380

O=C(c1ccccc1)c1ccc(O)cc1O [2,4-Dihydroxybenzophenone]
Details	concentration in plasma [ng/mL]
Mouse [21]	208
Mouse [22]	156
Mouse [24]	543
Mouse [27]	443
Mouse [29]	242
Mouse [30]	382
Mouse [32]	83.6
Mouse [33]	35.6
Mouse [35]	869
Mouse [36]	254
Rat [25]	220
Rat [28]	124
Rat [34]	34.9

Details	concentration in plasma [ng/mL]
Mouse [31], 0.5 h	323
Mouse [31], 0.75 h	316
Mouse [31], 1 h	282
Mouse [31], 1.5 h	213
Mouse [31], 4 h	170
Mouse [31], 5 h	115
Mouse [31], 5 min	330
Rat [23], 1 h	1180
Rat [23], 8 h	182
Rat [26], 1.5 h	162
Rat [26], 8 h	59.1
